Measurements published in PubChem BioAssay AID901 (National Center for Advancing Translational Sciences (NCATS), 2007).
The other results are listed elsewhere or left out. The main result of the screen is listed elsewhere. These columns were measured beside it and carry no call. The list favours compounds with an active or inconclusive main result. Words in brackets tell the shape of the fitted curve; partial curves, single points and poor fits give uncertain potencies.

Assay: qHTS Assay for Identifying the Cell-Membrane Permeable IMPase Inhibitors
Conditions: CHO-M1 cells, IP1 accumulation, HTRF TR-FRET ratio; measured here: donor channel 620 nm AC50

Question: For Nc1cc(=O)[nH]c(SCCNS(=O)(=O)c2ccccc2)n1, which AC50 is on record?
Answer: Its AC50 is 3.16 µM [falling, single point].

Question: With CC(C)CC(c1nnnn1Cc1ccco1)N1CCN(c2cccc(Cl)c2)CC1 (stereo unspecified) as the compound, how does the AC50 read?
Answer: The AC50 was 0.501 µM [rising, full curve, poor fit].

Question: For CC(O)/C=C/c1cccc[n+]1C (stereo unspecified), which AC50 is on record?
Answer: The AC50 was 5.01 µM [falling, single point].

Question: With Fc1ccc(NC(=S)NN=C2CCCCCC2)cc1 as the compound, how does the AC50 read?
Answer: The AC50 was 0.02 µM [rising, full curve, poor fit].

Question: With O=C(CCC(=O)c1ccc(F)cc1)OC1CCOC1=O (stereo unspecified) as the compound, how does the AC50 read?
Answer: The AC50 was 31.6 µM [falling, single point].

Question: For COc1cccc(NC(=O)Nc2ccc3c(c2)nnn3C)c1, which AC50 is on record?
Answer: Its AC50 is 0.794 µM [falling, full curve].

Question: Which AC50 does the source give for O=C(Nn1c(O)c(C=C2N=c3ccccc3=N2)sc1=S)c1cccc(Cl)c1 here?
Answer: The AC50 was 31.6 µM [falling, single point].

Question: Which AC50 does the source give for CN(C)c1oc(-c2ccccc2Cl)nc1C#N here?
Answer: The AC50 was 3.55 µM [falling, full curve, poor fit].

Question: Which AC50 does the source give for Cc1ccnc(NS(=O)(=O)c2ccc(NC(=O)C(C)(C)Oc3ccc(Cl)cc3)cc2)n1 here?
Answer: Its AC50 is 0.0891 µM [falling, full curve, poor fit].

Question: Which AC50 does the source give for O=S(=O)(c1ccc(Br)cc1)N1CCN(c2cc(-c3ccccc3)nc3ncnn23)CC1 here?
Answer: Its AC50 is 3.98 µM [falling, partial curve, poor fit].

Question: Which AC50 does the source give for COc1ccccc1NC(=O)CCN1CC(C)OC(C)C1 (stereo unspecified) here?
Answer: The AC50 was 5.01 µM [falling, single point].

Question: With COc1ccc2sc3ccccc3c(=O)c2c1OC as the compound, how does the AC50 read?
Answer: Its AC50 is 31.6 µM [rising, single point].

Question: For Cc1oc2c(cc(NS(=O)(=O)c3ccc(Cl)cc3)c3ccccc32)c1C(=O)OCc1ccccc1, which AC50 is on record?
Answer: The AC50 was 10 µM [rising, partial curve].

Question: Which AC50 does the source give for Cc1[nH]n2c(=O)c3c(nc2c1-c1ccc(Cl)cc1)CCC3 here?
Answer: The AC50 was 3.98 µM [rising, single point].

Question: With CCOc1ccc(-c2nc3ccccc3c(=O)o2)cc1 as the compound, how does the AC50 read?
Answer: The AC50 was 25.1 µM [rising, partial curve].

Question: Which AC50 does the source give for CCCc1cc(C(=O)Nc2ccc(C(C)=O)cc2)no1 here?
Answer: Its AC50 is 31.6 µM [rising, single point].

Question: For COc1ccc(/C=N/NC(=O)CSc2n[nH]c(=O)[nH]c2=O)cc1, which AC50 is on record?
Answer: The AC50 was 0.00355 µM [falling, full curve, poor fit].

Question: For CC(C(=O)N1CCCc2ccccc21)N1C(=O)c2ccccc2C1=O (stereo unspecified), which AC50 is on record?
Answer: The AC50 was 1 µM [rising, full curve, poor fit].

Question: For Cc1cc(C)c2nc(C(F)(F)F)nc(N3CC(C)OC(C)C3)c2c1 (stereo unspecified), which AC50 is on record?
Answer: Its AC50 is 3.16 µM [falling, full curve, poor fit].

Question: For CCOC(=O)COc1ccc2nsnc2c1Cl, which AC50 is on record?
Answer: Its AC50 is 12.6 µM [rising, partial curve].

Question: For C=CCc1cccc(/C=N/c2ncccc2O)c1O, which AC50 is on record?
Answer: Its AC50 is 12.6 µM [falling, single point].

Question: Which AC50 does the source give for Cc1ccc(NC2=CC(=O)C(=O)c3ccccc32)cc1 here?
Answer: Its AC50 is 15.8 µM [falling, single point].

Question: With CCCCCC(=O)Nc1c(-c2ccc(OC)cc2)c(=O)c2ccccc2n1C as the compound, how does the AC50 read?
Answer: The AC50 was 0.794 µM [falling, full curve, poor fit].

Question: Which AC50 does the source give for COCCCn1c(C(C)C)nc2oc3cc(OC)ccc3c(=O)c2c1=O here?
Answer: Its AC50 is 0.251 µM [falling, partial curve, poor fit].

Question: For CC(C)Sc1oc(-c2ccco2)nc1S(=O)(=O)c1ccccc1, which AC50 is on record?
Answer: The AC50 was 10 µM [falling, partial curve, poor fit].

Question: With CCOc1ccccc1CNC(=O)CCN1C(=O)COc2ccccc21 as the compound, how does the AC50 read?
Answer: The AC50 was 0.00398 µM [falling, partial curve, poor fit].

Question: For COc1cc2c(C(=O)NCc3ccc4c(c3)OCO4)cn(C)c(=O)c2cc1OC, which AC50 is on record?
Answer: The AC50 was 25.1 µM [rising, single point].

Question: With COc1ccc(N(C(=O)c2ccco2)C(C(=O)NC2CCCCC2)c2cccs2)cc1OC (stereo unspecified) as the compound, how does the AC50 read?
Answer: The AC50 was 0.2 µM [rising, single point].

Question: With COc1ccccc1N1CCN(C(=O)c2cnn3cccnc23)CC1 as the compound, how does the AC50 read?
Answer: The AC50 was 5.62 µM [rising, single point].

Question: With CCN1CCN(c2nc(C)nc3c2sc(=S)n3C)CC1 as the compound, how does the AC50 read?
Answer: The AC50 was 1.12 µM [falling, full curve, poor fit].

Question: Which AC50 does the source give for COc1cccc(OC)c1C(=O)Nc1ccc(-c2nc3ncccc3o2)cc1 here?
Answer: Its AC50 is 0.00501 µM [falling, full curve, poor fit].

Question: With COc1ccc(S(=O)(=O)CCc2nnc(NC(=O)c3cccs3)s2)cc1 as the compound, how does the AC50 read?
Answer: Its AC50 is 2.51 µM [falling, full curve, poor fit].

Question: For OC(CSc1ccccc1Cl)CN1CCN(c2ccccc2F)CC1 (stereo unspecified), which AC50 is on record?
Answer: Its AC50 is 14.1 µM [falling, single point].

Question: Which AC50 does the source give for CCC(=O)Nc1ccc(N2CCN(Cc3ccccc3)CC2)cc1 here?
Answer: Its AC50 is 1.58 µM [falling, partial curve].

Question: With CCC(Sc1nc2ccccc2c(=O)[nH]1)C(=O)O (stereo unspecified) as the compound, how does the AC50 read?
Answer: The AC50 was 0.316 µM [falling, full curve, poor fit].

Question: Which AC50 does the source give for COc1ccccc1CN(Cc1ccco1)S(=O)(=O)c1ccc(-n2cnnn2)c(OC)c1 here?
Answer: The AC50 was 2.82 µM [falling, full curve].

Question: With COC(=O)c1cc(NC(=O)CSc2nnc(CN3CCOCC3)n2C)ccc1Cl as the compound, how does the AC50 read?
Answer: Its AC50 is 0.01 µM [falling, full curve, poor fit].

Question: Which AC50 does the source give for CCOC(=O)c1cc(OC(=O)c2ccccc2F)n(-c2ccccc2)n1 here?
Answer: Its AC50 is 0.00447 µM [falling, full curve, poor fit].

Question: With COc1ccc(OCC(=O)Nc2ccc(-c3nc4cc(Cl)ccc4o3)cc2)cc1 as the compound, how does the AC50 read?
Answer: Its AC50 is 28.2 µM [rising, single point].

Question: For COc1cc(/C=N/N=C(/N)c2nonc2N)cc(Br)c1OCc1cccc(C)c1, which AC50 is on record?
Answer: The AC50 was 0.1 µM [falling, full curve, poor fit].

Question: With Cc1cccc2c(-c3ccccc3)cc(=O)[nH]c12 as the compound, how does the AC50 read?
Answer: Its AC50 is 0.126 µM [falling, full curve, poor fit].

Question: With Cc1c(C(=O)C(=O)N2c3ccc(F)cc3CCC2C)c2ccccc2n1C (stereo unspecified) as the compound, how does the AC50 read?
Answer: The AC50 was 14.1 µM [rising, single point].

Question: Which AC50 does the source give for C/C(=C\C(=O)c1ccccc1)Nc1cccc(O)c1 here?
Answer: Its AC50 is 0.0126 µM [rising, full curve, poor fit].

Question: With O=C(c1cc(-c2ccccn2)nc2ccc(Br)cc12)N1CCc2ccccc2C1 as the compound, how does the AC50 read?
Answer: Its AC50 is 15.8 µM [rising, partial curve].

Question: Which AC50 does the source give for CN1CCN(C(=O)c2ccc3c(=O)n(Cc4ccc(Cl)cc4)c(=S)[nH]c3c2)CC1 here?
Answer: The AC50 was 0.2 µM [falling, full curve, poor fit].

Question: With CCCn1c(NCc2cccc(OC)c2O)nc2ccccc21 as the compound, how does the AC50 read?
Answer: The AC50 was 0.2 µM [falling, full curve].

Question: With CC(C)NC(=O)c1cccc(Cn2cc(Cl)cn2)c1 as the compound, how does the AC50 read?
Answer: The AC50 was 0.0316 µM [falling, full curve].

Question: Which AC50 does the source give for Cn1nc(C(F)(F)F)c(/C=N/OC(=O)c2ccccc2)c1SCc1ccc(Cl)cc1 here?
Answer: Its AC50 is 0.316 µM [falling, full curve, poor fit].

Question: For O=[N+]([O-])c1ccc(/C=N\N2CCN(c3ccc(Cl)cc3)CC2)cc1, which AC50 is on record?
Answer: The AC50 was 31.6 µM [falling, single point].

Question: For CS/C(=C\[N+](=O)[O-])Nc1ccccc1, which AC50 is on record?
Answer: The AC50 was 6.31 µM [falling, single point].

Question: Which AC50 does the source give for O=C(C1=C(O)C(=O)N(Cc2ccco2)C1c1cccnc1)c1cc2ccccc2o1 (stereo unspecified) here?
Answer: Its AC50 is 12.6 µM [rising, partial curve].

Question: Which AC50 does the source give for COc1ccc(-n2c(COc3ccc(C)cc3)nnc2SCC(N)=O)cc1 here?
Answer: Its AC50 is 3.16 µM [falling, partial curve].

Question: For CCOc1cccc(C(=O)NC2CCCCC2)c1, which AC50 is on record?
Answer: The AC50 was 5.62 µM [falling, partial curve, poor fit].

Question: For O=C(Nc1cccc2ccccc12)c1nn(C23CC4CC(CC(C4)C2)C3)cc1[N+](=O)[O-], which AC50 is on record?
Answer: Its AC50 is 0.0126 µM [rising, full curve, poor fit].

Question: With NC(=O)C[C@@H]1N[C@]2(C(=O)Nc3ccccc32)[C@@H]2C(=O)N(c3cc(C(F)(F)F)ccc3Cl)C(=O)[C@H]12 as the compound, how does the AC50 read?
Answer: Its AC50 is 0.316 µM [falling, full curve].

Question: With Cc1ccc(NC(=O)CN(c2ccccc2)S(=O)(=O)N(C)C)cc1C as the compound, how does the AC50 read?
Answer: Its AC50 is 0.794 µM [falling, full curve].

Question: For CC1=C(C(=O)OC(C)C)C(c2ccc(C)o2)NC(=O)N1 (stereo unspecified), which AC50 is on record?
Answer: Its AC50 is 0.2 µM [falling, full curve].

Question: With CCCCc1cc(=O)oc2cc(OCc3cc(OC)c(OC)c(OC)c3)c(Cl)cc12 as the compound, how does the AC50 read?
Answer: Its AC50 is 5.01 µM [rising, single point].

Question: With COc1cc(NC(=O)C2CCCN2C(=O)C2CCC(C)CC2)cc(OC)c1OC (stereo unspecified) as the compound, how does the AC50 read?
Answer: Its AC50 is 5.62 µM [rising, single point].

Question: Which AC50 does the source give for CCC(Sc1nc(-c2ccccc2)c(C#N)c(=O)[nH]1)C(=O)Nc1nnc(C)s1 (stereo unspecified) here?
Answer: Its AC50 is 12.6 µM [rising, partial curve].

Question: With Cc1c(NC(=O)COC(=O)C2CC3C=CC2C3)c(=O)n(-c2ccccc2)n1C (stereo unspecified) as the compound, how does the AC50 read?
Answer: Its AC50 is 3.98 µM [falling, partial curve].

Question: For COc1cccc(/C=C/C(=O)OCC(=O)NCC2CCCO2)c1OC (stereo unspecified), which AC50 is on record?
Answer: Its AC50 is 1.12 µM [falling, full curve, poor fit].

Question: With CCCCNC(=O)OCC(CC)NC(=O)OC(C)C (stereo unspecified) as the compound, how does the AC50 read?
Answer: The AC50 was 0.00398 µM [falling, full curve, poor fit].

Question: Which AC50 does the source give for CCN(Cc1cc2cc(OC)ccc2[nH]c1=O)C(=O)Cc1ccc(OC)cc1 here?
Answer: Its AC50 is 15.8 µM [rising, single point].

Question: Which AC50 does the source give for O=C(NCC1CCCO1)c1onc(CSc2ccc(F)c(F)c2)c1C(=O)O (stereo unspecified) here?
Answer: Its AC50 is 0.631 µM [rising, full curve, poor fit].

Question: For COC(=O)CSc1nc(C)c(C(=O)Nc2ccccc2C)c(-c2ccc(Cl)cc2)c1C#N, which AC50 is on record?
Answer: The AC50 was 35.5 µM [rising, single point].
